From ChEMBL document CHEMBL3988442, “University of Dundee, Small-Polar-MMV Screening Library” (2021).

Sequences of proteins named here, by UniProt entry; tags and fusion partners are left off.
UniProt E9BF75, entry or part of it: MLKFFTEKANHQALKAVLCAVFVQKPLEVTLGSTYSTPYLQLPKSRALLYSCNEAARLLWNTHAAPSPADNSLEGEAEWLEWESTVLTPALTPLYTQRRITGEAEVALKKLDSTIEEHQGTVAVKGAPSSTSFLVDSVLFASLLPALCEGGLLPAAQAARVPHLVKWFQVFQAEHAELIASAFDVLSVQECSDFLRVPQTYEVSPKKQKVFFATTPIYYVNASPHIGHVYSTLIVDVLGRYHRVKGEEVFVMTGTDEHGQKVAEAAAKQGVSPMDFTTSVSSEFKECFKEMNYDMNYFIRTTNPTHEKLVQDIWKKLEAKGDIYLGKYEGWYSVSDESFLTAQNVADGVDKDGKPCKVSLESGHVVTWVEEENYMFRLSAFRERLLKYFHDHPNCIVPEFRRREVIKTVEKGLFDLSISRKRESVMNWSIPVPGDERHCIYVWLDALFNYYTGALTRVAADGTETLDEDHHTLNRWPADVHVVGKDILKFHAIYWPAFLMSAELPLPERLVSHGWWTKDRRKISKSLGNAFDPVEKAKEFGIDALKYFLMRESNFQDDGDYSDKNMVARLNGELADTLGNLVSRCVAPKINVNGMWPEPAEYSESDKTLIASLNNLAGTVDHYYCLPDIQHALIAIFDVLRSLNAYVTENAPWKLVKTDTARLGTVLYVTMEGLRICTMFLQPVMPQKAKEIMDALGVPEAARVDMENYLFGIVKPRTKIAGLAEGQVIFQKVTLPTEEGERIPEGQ

Mtb heat-shock: 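Assay on Mycobacterium tuberculosis, filed only as a heat shock assay from Cornell; the read-out is not stated. The concentration is filed as 10 mM, unlikely as a test dose, so the dose is not known. Higher reads as stronger inhibition (inferred: compounds with an IC50 in retests scored well above the rest). About 69,000 compounds were tested under these conditions; 1.4% (about 930) showed 50% or more at least once.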
Mtb growth Cornell: 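Whole-cell assay for inhibitors of Mycobacterium tuberculosis growth, labelled Cornell in the record; the read-out is not stated. The concentration is filed as 10 mM, unlikely as a test dose, so the dose is not known. Higher means stronger inhibition (inferred from two other growth screens of the library). Size under these conditions: about 53,000 compounds, about 900 of them at 50% or above in at least one test.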
LdMetRS: 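Methionyl-tRNA synthetase (putative), Leishmania donovani (UniProt E9BF75). Primary screen of methionyl-tRNA synthetase; the read-out is not stated. The test concentration is not given. The values are filed as inhibition. About 68,000 compounds were tested under these conditions; 0.035% (about 24) showed 50% or more at least once.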

Results are percentages, as filed. The record does not define 0% and 100%; most values in the screen are far below 50% and negative numbers occur (in some assays of this library far below -100). Compounds were drawn at random from those tested, without regard to their results. A dash means the value is not listed here; it may have been measured.

Compound	Mtb heat-shock	Mtb growth Cornell	LdMetRS
Cc1cc(S(=O)(=O)NCC(C)(C)N)c(F)cc1F.Cl	3.827%	9.587%	-
OCCOc1cc(F)ccc1NCc1nc(-c2cccs2)no1	-31.48%	23.98%	17.08%
COC(=O)CCNC(=O)c1cccc(C(=O)N(C)c2ccccc2)c1	-22.62%	-	31.68%
CN1CCN(C(CNC(=O)CCn2cccn2)c2cccs2)CC1 (centres undefined)	6.463%	10.6%	5.854%
Cc1cc(C(N)=O)ccc1NC(=O)c1nc(N2CCCCC2)ncc1Cl	-10.24%	-	-
O=C(NCCOc1ccc2c(c1)OCO2)N1CCCC(CO)C1 (centres undefined)	-3.577%	-	17.05%
O=C(CN1CCOC(CNc2cccnn2)C1)NCc1cccs1 (centres undefined)	104.8%	-	20%
Cc1nn(CC(=O)N2CCC3(CN(C)C(=O)O3)C2)c(=O)c2ccccc12 (centres undefined)	-1.529%	-1.62%	6.545%
Cc1ccc(CN2CCc3ncnc(-c4ccc(F)cc4)c3CC2)o1	-	-	17.15%
O=S1(=O)CCC(N(CCc2ccc3c(c2)CCO3)C2CC2)C1 (centres undefined)	24.73%	-	17.9%
O=C(O)C(F)(F)F.[H][C@@]12CCN(Cc3ccc4c(c3)OCO4)C[C@]1([H])O[C@H](C(=O)N(C)C)C2	-8.385%	-1.591%	-
Cc1cc(C)n(CCCNC(=O)C2CCCO2)n1 (centres undefined)	6.582%	23.72%	10.3%
Cc1ncccc1OC1(C(=O)NCCNc2ccccc2)CCNCC1	-14.97%	-	12.68%
CC(C)(C)C(=O)NCCC(=O)NS(=O)(=O)c1cccc(C#N)c1	2.28%	14.68%	14.51%
Cc1cc(N)cc(C2CN(Cc3cc[nH]n3)CCO2)n1 (centres undefined)	-22.52%	-18.07%	20.06%
O=c1[nH]c2ccccc2c2c1CCO2	14.91%	30.56%	14.21%
Cn1nc(C2CCCN(C(=O)CO)C2)cc1O (centres undefined)	54.18%	-2.935%	7.192%
Cc1nc2c(c(C)c1CC(=O)NCc1cccs1)c(=O)[nH]n2C	11.25%	-	23.2%
CCN(Cc1ccoc1)C(=O)c1cc(S(N)(=O)=O)c(C)o1	0.7107%	-	10.53%
CN1CCN(C2COC3(CCN(CC4CC4)CC3)C2)CC1.O=C(O)C(F)(F)F.O=C(O)C(F)(F)F.O=C(O)C(F)(F)F (centres undefined)	1.192%	33.13%	-
Cn1cc(CN2CCCC(Cn3cc(CCCO)nn3)C2)cn1 (centres undefined)	-5.282%	-	7.692%
CC(=O)N1CCC2(CC1)CN(C(=O)c1ccc3c(c1)OCO3)C2	-5.246%	-	10.56%
Cc1oncc1C(=O)N1CC[C@H]2[C@@H]1CCC(=O)N2CC1CCOCC1	-	-	13.66%
CC[C@H]1CN(C(=O)c2cccnc2)CC[C@H]1CC(=O)NCCOC	5.198%	-	7.143%
CN(CCOc1ccc(Br)cc1)Cc1cscn1	-1.798%	18.54%	3.665%
CC1CCCN(c2ccc(C(N)=O)cc2NC(=O)CC2=CCNCC2)C1 (centres undefined)	31.51%	-29.98%	16.08%
Cc1nn(C2CCS(=O)(=O)C2)c(O)c1Cc1ccc(Br)cc1 (centres undefined)	-1.974%	-15.4%	2.121%
CC(C)n1cc(C(=O)NCCc2cn3ccsc3n2)cn1	-5.792%	5.33%	12.94%
CC(C)(N)c1cn(C2CCN(C(=O)CCC3CCCCC3)CC2)nn1	-3.069%	11.1%	11.06%
COc1ccc(NC(=O)C(C)(C)C)cc1OCc1cccnc1	15.12%	17.93%	9.964%
Cc1ccc2nc(NCCN3CCOCC3)n(C)c(=O)c2c1	-47.47%	-27.09%	11.6%
CCCN1CCCn2c(nc(CNC(=O)N3CCCC3)cc2=O)C1	-	-	12.2%
[H][C@@]12CN(C(=O)N(C)C)C[C@]1([H])C(=O)NC21CCN(C(=O)NC(C)C)CC1	-1.908%	-	-
CCN1CCN(c2ncc3c(=O)n(Cc4ccco4)ccc3n2)CC1	12.77%	-	9.392%
Cn1cc(C2CCCN2CC(=O)N(CCC#N)Cc2ccco2)cn1 (centres undefined)	6.327%	4.631%	10%
O=C(NCC(O)c1ccc(F)cc1F)c1cccnc1O (centres undefined)	-2.544%	12.37%	13.54%
COc1ccccc1C(C)(C)NC(=O)c1ccc(F)c(NC(C)=O)c1	-1.388%	4.095%	13.28%
CC(C)NC(=O)C1(CC2CC(c3ccc(F)cc3)=NO2)CCNCC1 (centres undefined)	-	-	10.38%
c1coc(CNc2ncc3c(n2)C2(CCNC2)COC3)c1 (centres undefined)	-	-	17.77%
O=C1CC(CNc2cncc(Cl)n2)c2ccccc2N1 (centres undefined)	-8.98%	-32.76%	14.78%
O=C1CCC(C(=O)N2CCOC(Cc3ccccc3Cl)C2)=NN1 (centres undefined)	6.009%	-5.859%	5.575%
CCc1nnsc1C(=O)N1CCCN(Cc2cnn(CC)c2)CC1	27.99%	18.44%	5.842%
O=C(O)c1ccccc1CN1CCCC(Cc2ccn[nH]2)C1 (centres undefined)	2.746%	-6.882%	7.477%
CSc1ccc(NC(=O)COCc2ccccc2)nc1	-0.1704%	-13.65%	4.899%
O=C1CCCCN1CSc1nnnn1-c1ccc(Cl)cc1	-13.33%	26.51%	-4.668%
CC(C)NC(=O)c1noc2c1CN(Cc1cnn(C)c1)CC2	12.41%	-1.383%	-1.648%
Cc1cscc1C(=O)NC1CC(=O)N(C(C)C)C1=O (centres undefined)	5.192%	-	10.53%
COCc1ccc(C(=O)N2CCN(CC(C)O)CC2)cc1 (centres undefined)	-4.572%	-2.193%	3.419%
CC(=O)N(Cc1noc(C2CC2)n1)C1CCN(Cc2cccnc2)C1 (centres undefined)	7.869%	21.56%	7.937%
Cc1nc(C)n(CCNC(=O)C2(C)CC(c3ccccc3)=NO2)n1 (centres undefined)	-8.299%	-68.29%	19.15%
CN1CCOC2(CCCN(C(=O)C3CCCCC3)C2)C1 (centres undefined)	-	-	3.889%
CN1CCC(N(C)CCC(=O)N2CCC(Oc3ccc(Cl)cc3)CC2)C1 (centres undefined)	15.5%	13.89%	23.69%
Cc1ccc(Cc2cnc(C3CCNCC3)cn2)cc1.Cl	-12.6%	-4.084%	-
O=C(NCc1nnc2n1CCCCC2)N(Cc1ccncc1)C1CC1	-19.16%	15.35%	9.783%